This is an account of results in publication PMC10901769, “An anti-CRISPR that represses its own transcription while blocking Cas9-target DNA binding”.

Holding throughout (assay): EMSA
(In general: A gel shift assay detects complexes by their altered migration in electrophoresis.)

One data set relates to T1, AcrIIA15 full-length.
T1 sequence (looked up): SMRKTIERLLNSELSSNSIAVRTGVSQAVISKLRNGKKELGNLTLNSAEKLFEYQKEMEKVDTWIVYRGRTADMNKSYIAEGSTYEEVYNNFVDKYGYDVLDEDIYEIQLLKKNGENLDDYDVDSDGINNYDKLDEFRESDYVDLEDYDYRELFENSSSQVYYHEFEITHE
Conditions: Promoter EMSA: 20 mM Tris-HCl pH 7.5, 300 mM NaCl, on ice/4 C, 30 min, SaCas9 EMSA: 20 mM Tris pH 7.5, 200 mM NaCl, 10 mM EDTA, RT, recombinant protein, residues 1-171.

A further data set deals with T2, AcrIIA15 S25A S26A.
T2 sequence (looked up): T1 sequence (looked up) with S26A
Conditions: Promoter EMSA: 20 mM Tris-HCl pH 7.5, 300 mM NaCl, on ice/4 C, 30 min; SaCas9 EMSA: 20 mM Tris pH 7.5, 200 mM NaCl, 10 mM EDTA, RT; recombinant protein; residues 1-171; protein details: C-terminal His6; label: 5'-Cy3 on strand 1.

The test system of the next data set is T3, AcrIIA15 S46A S47A.
T3 sequence (looked up): T1 sequence (looked up) with S47A
The conditions noted are these: Promoter EMSA: 20 mM Tris-HCl pH 7.5, 300 mM NaCl, on ice/4 C, 30 min; SaCas9 EMSA: 20 mM Tris pH 7.5, 200 mM NaCl, 10 mM EDTA, RT; recombinant protein; residues 1-171; protein details: C-terminal His6; label: 5'-Cy3 on strand 1.

Another data set concerns T4, AcrIIA15 Q26A Q27A.
T4 sequence (looked up): T1 sequence (looked up) with Q27A
Conditions: Promoter EMSA: 20 mM Tris-HCl pH 7.5, 300 mM NaCl, on ice/4 C, 30 min; SaCas9 EMSA: 20 mM Tris pH 7.5, 200 mM NaCl, 10 mM EDTA, RT; recombinant protein; residues 1-171; protein details: C-terminal His6; label: 5'-Cy3 on strand 1.

A further data set concerns T5, AcrIIA15 R2A R3A.
T5 sequence (looked up): T1 sequence (looked up) with R3A
Conditions: mild decrease; Promoter EMSA: 20 mM Tris-HCl pH 7.5, 300 mM NaCl, on ice/4 C, 30 min; SaCas9 EMSA: 20 mM Tris pH 7.5, 200 mM NaCl, 10 mM EDTA, RT; recombinant protein; residues 1-171; protein details: C-terminal His6; label: 5'-Cy3 on strand 1.

For another data set, the system named is T6, AcrIIA15 S30A S31A.
T6 sequence (looked up): T1 sequence (looked up) with S31A
Conditions: Promoter EMSA: 20 mM Tris-HCl pH 7.5, 300 mM NaCl, on ice/4 C, 30 min; SaCas9 EMSA: 20 mM Tris pH 7.5, 200 mM NaCl, 10 mM EDTA, RT; recombinant protein; residues 1-171; protein details: C-terminal His6; label: 5'-Cy3 on strand 1.

The next data set relates to T7, AcrIIA15 N34A N35A.
T7 sequence (looked up): T1 sequence (looked up) with N35A
The conditions noted are these: slight decrease; Promoter EMSA: 20 mM Tris-HCl pH 7.5, 300 mM NaCl, on ice/4 C, 30 min; SaCas9 EMSA: 20 mM Tris pH 7.5, 200 mM NaCl, 10 mM EDTA, RT; recombinant protein; residues 1-171; protein details: C-terminal His6; label: 5'-Cy3 on strand 1.

For the next data set, the system named is T8, AcrIIA15 S14A S15A.
T8 sequence (looked up): T1 sequence (looked up) with S15A
Conditions: slight decrease; Promoter EMSA: 20 mM Tris-HCl pH 7.5, 300 mM NaCl, on ice/4 C, 30 min; SaCas9 EMSA: 20 mM Tris pH 7.5, 200 mM NaCl, 10 mM EDTA, RT; recombinant protein; residues 1-171; protein details: C-terminal His6; label: 5'-Cy3 on strand 1.

The next data set has as its system T9, AcrIIA15 N16A N17A.
T9 sequence (looked up): T1 sequence (looked up) with N17A
The conditions noted are these: Promoter EMSA: 20 mM Tris-HCl pH 7.5, 300 mM NaCl, on ice/4 C, 30 min; SaCas9 EMSA: 20 mM Tris pH 7.5, 200 mM NaCl, 10 mM EDTA, RT; recombinant protein; residues 1-171; protein details: C-terminal His6; label: 5'-Cy3 on strand 1.

For a further data set, the system named is T10, AcrIIA15 T43A T44A.
T10 sequence (looked up): T1 sequence (looked up) with T44A
The conditions noted are these: Promoter EMSA: 20 mM Tris-HCl pH 7.5, 300 mM NaCl, on ice/4 C, 30 min; SaCas9 EMSA: 20 mM Tris pH 7.5, 200 mM NaCl, 10 mM EDTA, RT; recombinant protein; residues 1-171; protein details: C-terminal His6; label: 5'-Cy3 on strand 1.

[1] abbreviates: protein details: C-terminal His6, or His6-Sumo removed by ….

Positions count from the first letter of the chain named. The comparison behind a weaker result is the experiment's own reference, which may not be listed here. Tags and fusion partners may be left off the protein sequences shown. For part of these data: The exact form of at least one protein or probe is not confirmed. For part of these data: At least one verdict was read from the data and is not stated in words by the source.

Turning to “ATAATTGTGACAAATGTCACAGAAAA (double strand) [IR1 mutant A4:T4'/T17:A17']”, the binding result with AcrIIA15 full-length (setting [1]) is reported as “binds more weakly”.
On the same count and under the same terms, the same measure for “ATAATTATTACAAATGTAATAGAAAA (double strand) [IR1 mutant G6:C6'/C15:G15']”: “binds more weakly”.
As for “ATAATTATGACAAATGTCATAGAAAA (double strand) [Cy3-IR1]”, the binding result in the data set with AcrIIA15 S25A S26A was “binds more weakly”; in the data set with AcrIIA15 full-length (wild-type reference for the mutants, protein details: C-terminal His6, or His6-Sumo removed by Ulp1, label: 5'-Cy3 on strand 1) it was “binds”; in the data set with AcrIIA15 S46A S47A, “binds more weakly”; in the data set with AcrIIA15 Q26A Q27A, “binds more weakly”; in the data set with AcrIIA15 R2A R3A, “binds more weakly”; in the data set on AcrIIA15 S30A S31A it was “binds more weakly”. Moreover, the binding result in the data set on AcrIIA15 N34A N35A, with AcrIIA15 S14A S15A, with AcrIIA15 N16A N17A and with AcrIIA15 T43A T44A was “binds more weakly” each time.
